Test results: article PMC8384837
Some of the results follow. At the low end of the ranking the order means little.

target: T1, PUM1 PUF domain R2-VFQ R3-THE R4-TFR N899V + Y900F + C935T + R936H + Q939E + N971T + H972F + Q975R (UniProt Q14671); conditions: yeast three-hybrid, YBZ-1, SC-Leu-His + 0.5 mM 3-AT, 4 days
T1 sequence: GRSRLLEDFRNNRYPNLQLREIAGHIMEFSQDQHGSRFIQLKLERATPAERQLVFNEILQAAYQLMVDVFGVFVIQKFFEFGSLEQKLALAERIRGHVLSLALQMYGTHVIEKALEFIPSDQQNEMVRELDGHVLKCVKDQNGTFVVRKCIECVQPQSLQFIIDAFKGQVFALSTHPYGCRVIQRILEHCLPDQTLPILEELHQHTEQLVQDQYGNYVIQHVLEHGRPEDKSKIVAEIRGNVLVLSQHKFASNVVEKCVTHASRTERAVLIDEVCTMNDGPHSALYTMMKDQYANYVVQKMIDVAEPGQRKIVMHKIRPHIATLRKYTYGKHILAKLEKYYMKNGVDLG

| Sequence | binding signal (log2 enrichment (interaction score)) |
| --- | --- |
| GGCUAGAACUAGUGGAUCCCCCGGCGCCCGGCGGCUCGAGCCCGGGUAAGGUUCCGAAGUCUGCAUGCCGCCGGGCGCCAUGCCUGCAGGUCGACUCUAGAAAACAUG | -4.72 |
| GGCUAGAACUAGUGGAUCCCCCGGCGCCCGGCGGCUCGAGCCCGGGUAAGUUUACCAAGUCUGCAUGCCGCCGGGCGCCAUGCCUGCAGGUCGACUCUAGAAAACAUG | -5.57 |
| GGCUAGAACUAGUGGAUCCCCCGGCGCCCGGCGGCUCGAGCCCGGGUAAGUGAACGACGUCUGCAUGCCGCCGGGCGCCAUGCCUGCAGGUCGACUCUAGAAAACAUG | -5.02 |
| GGCUAGAACUAGUGGAUCCCCCGGCGCCCGGCGGCUCGAGCCCGGGUAAGUCUGAACGGUCUGCAUGCCGCCGGGCGCCAUGCCUGCAGGUCGACUCUAGAAAACAUG | -5.96 |
| GGCUAGAACUAGUGGAUCCCCCGGCGCCCGGCGGCUCGAGCCCGGGUAAGUUGUUUAAGUCUGCAUGCCGCCGGGCGCCAUGCCUGCAGGUCGACUCUAGAAAACAUG | -6.1 |
| GGCUAGAACUAGUGGAUCCCCCGGCGCCCGGCGGCUCGAGCCCGGGUAAGUUCAGUUAGUCUGCAUGCCGCCGGGCGCCAUGCCUGCAGGUCGACUCUAGAAAACAUG | -4.79 |
| GGCUAGAACUAGUGGAUCCCCCGGCGCCCGGCGGCUCGAGCCCGGGUAAGAAGCAUAGGUCUGCAUGCCGCCGGGCGCCAUGCCUGCAGGUCGACUCUAGAAAACAUG | -5.33 |
| GGCUAGAACUAGUGGAUCCCCCGGCGCCCGGCGGCUCGAGCCCGGGUAAGAAGACAAAGUCUGCAUGCCGCCGGGCGCCAUGCCUGCAGGUCGACUCUAGAAAACAUG | < -5.79 |
